Results as given in patent US8080115B2, “Method for the surface treatment of a metallic or fibrous material” (priority 2005, dated 2011).

Assays:
[1] = Brookfield viscosity of latex with added composition; settings: 5.3% by weight added to latex, 20° C., 20 rpm
[2] = Properties of the film obtained from latex with added composition; settings: 5.3% by weight added to latex

SMILES: CO[C@H]1CO[C@H]2[C@@H]1OC[C@H]2OC [Composition 5, dimethyl isosorbide]
- VISC 1 (Brookfield viscosity of the latex at 1 day) ([1]; 1 day): 4.8 10^3 mPa·s
- VISC 7 (Brookfield viscosity of the latex at 7 days) ([1]; 7 days): 4.8 10^3 mPa·s
- TG (glass transition temperature of the film) ([2]; DSC): +1.6 °C
- HAZE ([2]; Haze-Gard Plus device): 8.9
